Measured data: PubChem BioAssay AID504764 (Drosophila RNAi Screening Center, 2011)

- Test: 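Genes whose knock-down alters Notch-dependent transcription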 (primary screen)
- Cell system: Drosophila Kc167 cells
- Knock-down reagent: long dsRNA against Drosophila genes
- Timing: about 5 days (4 days dsRNA, then 24 h after transfection)
- Conditions: transfection of constitutively active membrane-tethered Notch lacking the extracellular domain, read 24 h later
- Measured: 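Light from a Notch-responsive E(spl)m3 luciferase reporter under active Notch, with control-promoter and no-Notch reporter wells to normalise; raw counts from paired wells a and b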
- Scale: induced reporter light, run 1, well a and induced reporter light, run 1, well b: higher = more light from the Notch target reporter with active Notch; control promoter light, run 1, well a and control promoter light, run 1, well b: higher = more light from the viral control promoter (cell number, transfection, viability); uninduced reporter light, run 1, well a: higher = more light from the Notch target reporter without active Notch
- Active means: 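Wells with low control signal or poorly matching duplicates excluded; duplicates averaged; per source plate, z beyond ±2 for induced/control log2 ratio or beyond ±1.8 for induced/uninduced marks a hit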
- Calls: active = modifier hit (raised or lowered Notch signal); inactive = not a hit
The screen tested about 22,000 reagents; this is an unselected part of those with a known target gene and a result. Of all reagents, 403 (1.9%) were called active. 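Unnormalised raw counts per well; ratio z-scores behind the hit calls and whether each hit raises or lowers signal are not deposited.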 Unmarked entries are inactive. Reagent sequences are not shown. The record does not give: the amount of reagent.

After knock-down of CG33136 [DRSC05744] the results were induced reporter light, run 1, well a = 1.07e5; induced reporter light, run 1, well b = 1.03e5; control promoter light, run 1, well a = 1.21e5; control promoter light, run 1, well b = 1.32e5; uninduced reporter light, run 1, well a = 8038. After knock-down of CG15237 [DRSC04971], the screen gave induced reporter light, run 1, well a = 1.90e5; induced reporter light, run 1, well b = 1.70e5; control promoter light, run 1, well a = 2.18e5; control promoter light, run 1, well b = 2.35e5; uninduced reporter light, run 1, well a = 19892. Against CG1637 [DRSC18865], the values are induced reporter light, run 1, well a = 76315; induced reporter light, run 1, well b = 76655; control promoter light, run 1, well a = 81810; control promoter light, run 1, well b = 70260; uninduced reporter light, run 1, well a = 5060. Knock-down of CG1637 [DRSC19748] came out at: induced reporter light, run 1, well a = 1.84e5; induced reporter light, run 1, well b = 1.29e5; control promoter light, run 1, well a = 2.19e5; control promoter light, run 1, well b = 2.07e5; uninduced reporter light, run 1, well a = 11380. CG1637 [DRSC19749] gave induced reporter light, run 1, well a = 1.18e5; induced reporter light, run 1, well b = 1.23e5; control promoter light, run 1, well a = 2.45e5; control promoter light, run 1, well b = 2.04e5; uninduced reporter light, run 1, well a = 8610. retinin [DRSC09940] scored induced reporter light, run 1, well a = 1.72e5; induced reporter light, run 1, well b = 1.54e5; control promoter light, run 1, well a = 1.66e5; control promoter light, run 1, well b = 1.66e5; uninduced reporter light, run 1, well a = 8740.

Silencing of Oseg6 (Outer segment 6) [DRSC06066] resulted in: induced reporter light, run 1, well a = 39375; induced reporter light, run 1, well b = 28135; control promoter light, run 1, well a = 44290; control promoter light, run 1, well b = 37130; uninduced reporter light, run 1, well a = 3370. With knock-down of CG4042 [DRSC11751] the results were induced reporter light, run 1, well a = 1.73e5; induced reporter light, run 1, well b = 1.25e5; control promoter light, run 1, well a = 1.34e5; control promoter light, run 1, well b = 86315; uninduced reporter light, run 1, well a = 8930. Klp61F (Kinesin-like protein at 61F) [DRSC08671] gave induced reporter light, run 1, well a = 64300; induced reporter light, run 1, well b = 67210; control promoter light, run 1, well a = 79275; control promoter light, run 1, well b = 77365; uninduced reporter light, run 1, well a = 8455. With knock-down of neo (neyo) [DRSC16316], the record shows induced reporter light, run 1, well a = 1.56e5; induced reporter light, run 1, well b = 1.45e5; control promoter light, run 1, well a = 2.00e5; control promoter light, run 1, well b = 1.85e5; uninduced reporter light, run 1, well a = 12450. Silencing of Lnpk (Lunapark) [DRSC07254] came out at: induced reporter light, run 1, well a = 1.66e5; induced reporter light, run 1, well b = 1.32e5; control promoter light, run 1, well a = 1.29e5; control promoter light, run 1, well b = 1.49e5; uninduced reporter light, run 1, well a = 11890. Knock-down of CG12590 [DRSC12216] gave: induced reporter light, run 1, well a = 1.11e5; induced reporter light, run 1, well b = 1.43e5; control promoter light, run 1, well a = 1.47e5; control promoter light, run 1, well b = 1.48e5; uninduced reporter light, run 1, well a = 9810.

After knock-down of Osi9 (Osiris 9) [DRSC12278], the record shows induced reporter light, run 1, well a = 1.80e5; induced reporter light, run 1, well b = 1.49e5; control promoter light, run 1, well a = 2.70e5; control promoter light, run 1, well b = 2.77e5; uninduced reporter light, run 1, well a = 11645. Against Lsp1beta (Larval serum protein 1 beta) [DRSC00757], the values are induced reporter light, run 1, well a = 1.90e5; induced reporter light, run 1, well b = 1.99e5; control promoter light, run 1, well a = 1.72e5; control promoter light, run 1, well b = 1.83e5; uninduced reporter light, run 1, well a = 20120. Silencing of Meltrin [DRSC16274] gave: induced reporter light, run 1, well a = 1.64e5; induced reporter light, run 1, well b = 1.76e5; control promoter light, run 1, well a = 1.24e5; control promoter light, run 1, well b = 1.22e5; uninduced reporter light, run 1, well a = 11012. Silencing of VGlut (Vesicular glutamate transporter) [DRSC00733] resulted in: induced reporter light, run 1, well a = 1.21e5; induced reporter light, run 1, well b = 1.06e5; control promoter light, run 1, well a = 1.08e5; control promoter light, run 1, well b = 65045; uninduced reporter light, run 1, well a = 8160. After knock-down of MICU1 (Mitochondrial calcium uptake 1) [DRSC02752], the screen gave induced reporter light, run 1, well a = 1.59e5; induced reporter light, run 1, well b = 1.69e5; control promoter light, run 1, well a = 1.65e5; control promoter light, run 1, well b = 1.95e5; uninduced reporter light, run 1, well a = 16485. ftz (fushi tarazu) [DRSC12626] showed induced reporter light, run 1, well a = 71095; induced reporter light, run 1, well b = 73900; control promoter light, run 1, well a = 60125; control promoter light, run 1, well b = 59590; uninduced reporter light, run 1, well a = 4500.

Against Spn85F (Serpin 85F) [DRSC14545], the entry reads induced reporter light, run 1, well a = 2.16e5; induced reporter light, run 1, well b = 1.62e5; control promoter light, run 1, well a = 3.15e5; control promoter light, run 1, well b = 3.33e5; uninduced reporter light, run 1, well a = 13480. Depletion of Snrk (SNF related kinase) [DRSC07192] resulted in: induced reporter light, run 1, well a = 1.40e5; induced reporter light, run 1, well b = 1.29e5; control promoter light, run 1, well a = 1.33e5; control promoter light, run 1, well b = 1.20e5; uninduced reporter light, run 1, well a = 10730. Silencing of CG6073 [DRSC15962] resulted in: induced reporter light, run 1, well a = 2.39e5; induced reporter light, run 1, well b = 2.33e5; control promoter light, run 1, well a = 2.71e5; control promoter light, run 1, well b = 2.64e5; uninduced reporter light, run 1, well a = 15145. After knock-down of CG1503 [DRSC20512], the record shows induced reporter light, run 1, well a = 1.78e5; induced reporter light, run 1, well b = 1.58e5; control promoter light, run 1, well a = 1.37e5; control promoter light, run 1, well b = 70705; uninduced reporter light, run 1, well a = 13420. Against NTPase [DRSC00761], the entry reads induced reporter light, run 1, well a = 1.60e5; induced reporter light, run 1, well b = 1.90e5; control promoter light, run 1, well a = 1.81e5; control promoter light, run 1, well b = 1.52e5; uninduced reporter light, run 1, well a = 19080. With knock-down of X11Lbeta [DRSC18156] the results were induced reporter light, run 1, well a = 76785; induced reporter light, run 1, well b = 91095; control promoter light, run 1, well a = 1.21e5; control promoter light, run 1, well b = 96670; uninduced reporter light, run 1, well a = 6845.

Depletion of X11Lbeta [DRSC18158] came out at: induced reporter light, run 1, well a = 1.00e5; induced reporter light, run 1, well b = 1.22e5; control promoter light, run 1, well a = 1.89e5; control promoter light, run 1, well b = 1.79e5; uninduced reporter light, run 1, well a = 7385.

Reformatted: results already given.
| Gene | dsRNA | induced reporter light, run 1, well a | induced reporter light, run 1, well b | control promoter light, run 1, well a | control promoter light, run 1, well b | uninduced reporter light, run 1, well a |
| --- | --- | --- | --- | --- | --- | --- |
| NTPase | DRSC00761 | 1.60e5 | 1.90e5 | 1.81e5 | 1.52e5 | 19080 |
| X11Lbeta | DRSC18156 | 76785 | 91095 | 1.21e5 | 96670 | 6845 |
